Test results reported in article doi:10.1101/777771.
These are yes or no findings as the source states them, for the method shown. In cells and extracts the contact can be indirect. Some results given as binding are weak or reduced against the parent protein; the word gives no strength.

Target: T1, JUNB (human (endogenous in A375)), P17275
T1 chain: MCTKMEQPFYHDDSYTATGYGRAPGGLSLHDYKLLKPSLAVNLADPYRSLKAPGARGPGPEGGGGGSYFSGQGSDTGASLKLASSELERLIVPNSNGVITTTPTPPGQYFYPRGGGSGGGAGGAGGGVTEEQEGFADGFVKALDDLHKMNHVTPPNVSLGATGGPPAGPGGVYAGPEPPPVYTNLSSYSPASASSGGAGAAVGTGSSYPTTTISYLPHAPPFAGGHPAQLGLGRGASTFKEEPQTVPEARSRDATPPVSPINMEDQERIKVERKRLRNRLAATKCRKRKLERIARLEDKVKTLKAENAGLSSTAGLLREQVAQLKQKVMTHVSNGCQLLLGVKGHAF
Assay: co-IP
Details: remark: other sources report otherwise

binding: binds
B1: FOSL1, P15407 1-271 (protein)
chain: MFRDFGEPGPSSGNGGGYGGPAQPPAAAQAAQQKFHLVPSINTMSGSQELQWMVQPHFLGPSSYPRPLTYPQYSPPQPRPGVIRALGPPPGVRRRPCEQISPEEEERRRVRRERNKLAAAKCRNRRKELTDFLQAETDKLEDEKSGLQREIEELQKQKERLELVLEAHRPICKIPEGAKEGDTGSTSGTSSPPAPCRPVPCISLSPGPVLEPEALHTPTLMTTPSLTPFTPSLVFTYPSTPEPCASAHRKSSSSSGDPSSDPLGSPTLLAL
